Consider two molecules from article PMC6813348.

The chains behind the UniProt entries cited, without tags or fusion partners.
UniProt P40337: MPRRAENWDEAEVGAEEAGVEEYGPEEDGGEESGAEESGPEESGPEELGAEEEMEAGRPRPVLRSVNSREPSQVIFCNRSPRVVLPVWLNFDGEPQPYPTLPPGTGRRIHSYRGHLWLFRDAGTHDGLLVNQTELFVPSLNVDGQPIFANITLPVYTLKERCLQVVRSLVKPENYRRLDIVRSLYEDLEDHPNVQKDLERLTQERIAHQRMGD

No constants are given. Whether binding was seen depends on the method and setting. For some of these results: Binding seen in cells or lysates may run through a third protein. Some binding calls cover weakened binding; strength is not graded here. For some of these results: Sequences can lack the tags named with a protein.

The target in assay [1] is T1, NLS-GFP-Btn2 (S. cerevisiae) (UniProt P53286).
T1 sequence: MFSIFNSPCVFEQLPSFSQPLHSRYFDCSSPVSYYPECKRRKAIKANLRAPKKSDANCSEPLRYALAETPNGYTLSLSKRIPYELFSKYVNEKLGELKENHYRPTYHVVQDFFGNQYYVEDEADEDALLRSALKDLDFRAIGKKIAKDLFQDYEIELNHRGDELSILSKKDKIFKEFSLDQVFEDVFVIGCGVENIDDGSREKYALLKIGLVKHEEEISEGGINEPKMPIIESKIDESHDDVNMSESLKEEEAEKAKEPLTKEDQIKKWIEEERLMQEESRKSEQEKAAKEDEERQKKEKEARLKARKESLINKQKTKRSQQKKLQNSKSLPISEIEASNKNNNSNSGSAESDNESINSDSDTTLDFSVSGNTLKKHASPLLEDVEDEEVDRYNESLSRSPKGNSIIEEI
In words: co-IP; lysate of hsp42Δ btn2Δ yeast after proteotoxic stress (37 °C + MG132); GFP constructs isolated on GFP-binder beads in IP buffer (50 mM Tris pH 7.5, 150 mM NaCl, 0.1% TX-100), 4 °C, 1 h; mCherry-VHL detected by western blot. (In western blotting, separated proteins are transferred to a membrane and probed.)

Assay [2] concerns the target T2, NLS-GFP-CTD (S. cerevisiae) (UniProt P53286).
T2 sequence: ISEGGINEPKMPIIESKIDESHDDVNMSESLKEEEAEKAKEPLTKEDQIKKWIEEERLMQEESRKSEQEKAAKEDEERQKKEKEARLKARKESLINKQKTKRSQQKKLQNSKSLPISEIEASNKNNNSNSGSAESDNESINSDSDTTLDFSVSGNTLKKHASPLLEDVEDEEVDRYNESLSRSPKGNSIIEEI
The assay is described as above.

In assay [3] the target is T3, NLS-GFP-αCLD (S. cerevisiae) (UniProt P53286).
T3 sequence: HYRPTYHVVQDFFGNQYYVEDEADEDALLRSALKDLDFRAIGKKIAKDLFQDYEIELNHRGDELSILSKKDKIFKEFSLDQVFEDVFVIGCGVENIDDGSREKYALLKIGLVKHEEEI
The assay is described as above.

The target in assay [4] is T4, Btn2ΔN (S. cerevisiae) (UniProt P53286).
T4 sequence: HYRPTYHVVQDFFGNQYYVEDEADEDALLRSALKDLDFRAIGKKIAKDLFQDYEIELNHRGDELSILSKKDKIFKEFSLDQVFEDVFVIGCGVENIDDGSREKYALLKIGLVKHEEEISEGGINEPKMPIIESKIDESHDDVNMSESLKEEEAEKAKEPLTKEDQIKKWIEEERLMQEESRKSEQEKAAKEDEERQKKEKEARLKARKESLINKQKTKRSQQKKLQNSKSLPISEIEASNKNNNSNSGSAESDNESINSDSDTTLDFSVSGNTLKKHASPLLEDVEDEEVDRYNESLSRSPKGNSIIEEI
In words: pull-down; 1 μM of each protein in buffer A, 25 °C, 15 min; Btn2 isolated on Btn2-binder beads (Btn2 antibodies on NHS-sepharose), seven washes; SDS-PAGE with SYPRO-Ruby; both purified.

Consider mCherry-VHL (from UniProt P40337 1-213), for which the binding result is “binds” in assay [1], “no binding” in assay [2] and “binds” in assay [3].

B1: Sis1 (protein, UniProt P25294 1-352)
chain: MVKETKLYDLLGVSPSANEQELKKGYRKAALKYHPDKPTGDTEKFKEISEAFEILNDPQKREIYDQYGLEAARSGGPSFGPGGPGGAGGAGGFPGGAGGFSGGHAFSNEDAFNIFSQFFGGSSPFGGADDSGFSFSSYPSGGGAGMGGMPGGMGGMHGGMGGMPGGFRSASSSPTYPEEETVQVNLPVSLEDLFVGKKKSFKIGRKGPHGASEKTQIDIQLKPGWKAGTKITYKNQGDYNPQTGRRKTLQFVIQEKSHPNFKRDGDDLIYTLPLSFKESLLGFSKTIQTIDGRTLPLSRVQPVQPSQTSTYPGQGMPTPKNPSQRGNLIVKYKVDYPISLNDAQKRAIDENF
Consider B1, for which, in assay [4], the binding entry was “no binding (tested: 1 μM)”.
